Reference: PubChem BioAssay AID493014 (National Center for Advancing Translational Sciences (NCATS), 2011)
Hit rate of the full screen: of about 340,000 compounds, about 170 (0.05%) were called active. This list was built around the results that the source calls inconclusive (neither active nor inactive); the mix of calls is not that of the screen. Calls follow the shape of the dose curve; as a rule, active = well fitted inhibition curve with a large enough effect in the signal ratio, with a control signal flat (not every such curve was filed as active); inconclusive = small, poorly fitted or top-dose-only effect, or effect the other way, or a change in a side signal; inactive = flat fitted curve, though single readings scatter; the % refers to the signal ratio. A potency beside an inconclusive call is a rough fit, not a confirmed value.

experiment: qHTS Assay to Find Inhibitors of Chronic Active B-Cell Receptor Signaling; details: ABC-DLBCL IkBa-CBG/CBR reporter, luminescence ratio (green luciferase fused to IkBa over red control in TMD8 lymphoma cells), 4 h; activity change, negative = inhibition: at 46.1 µM (top of the series);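 as to activity change, negative = inhibition: plate controls were basal doxycycline-induced cells for no effect and cells given 10 µM MG132 for full effect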
In short: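 Cell line TMD8 (human ABC DLBCL), stably expressing tet-inducible CBG68-IkBa fusion and CBR; IMDM/0.5% FBS; cpd up to 46 uM; dox induction, 4 h, 37C/5% CO2; dual luminescence; green/red ratio; MG132 control.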
Potency is read from the fitted curve at half-maximal effect.

Row | SMILES | activity change, negative = inhibition | Potency
1 | CC/C(=N\NC(C)=O)c1ccc(OC(F)F)cc1 | inactive: -3.06% | –
2 | COc1ccc(NC(=S)NNC(=O)COc2ccc(Cl)cc2Cl)cc1 | inactive: 1.96% | –
3 | CSc1nc(C)c2c(n1)N(c1ccc(O)cc1)CC2 | inconclusive: 7.51% | –
4 | O=C(O)Cn1nnnc1SCC(=O)Nc1ccccc1F | inactive: -6.18% | –
5 | Nc1ncnc2c1ncn2[C@@H]1O[C@H](COP(=O)(O)OP(=O)(O)OP(=O)(O)O)[C@@H](O)[C@H]1O | – | inconclusive: 29.1 µM [falling, single point]
6 | CCOc1cc(C(=O)OCc2ccc([N+](=O)[O-])cc2)ccc1OCC(=O)N1CCOCC1 | inactive: -0.262% | –
7 | C[C@]12CCC3C(CC[C@H]4CCCC[C@]34C)C1CC[C@@]2(O)CNCCO (stereo partly specified) | inconclusive: 1.85% | –
8 | CC(=O)Nc1ccc(NS(=O)(=O)c2cc(-c3cnc(C4CC4)o3)ccc2C)cc1 | – | inconclusive: 14.1 µM [falling, partial curve, poor fit]
9 | COc1ccccc1NCC(=O)N/N=C/c1sccc1C | – | inconclusive: 31.6 µM [rising, single point]
10 | CC(=O)Nc1ccc(C(=O)OCC(=O)c2cccc([N+](=O)[O-])c2)cc1 | inconclusive: 0.412% | –
11 | Cc1ccsc1C(=O)Nc1cccc(-n2cnnn2)c1 | – | inconclusive: 20 µM [falling, single point]
12 | Cc1cccc(C(=O)NNC(=O)c2ccc(Br)cc2)c1 | inconclusive: -22% | –
13 | c1ccc(OCc2nc(-c3cccs3)no2)cc1 | inconclusive: -15.4% | –
14 | COc1ccc(C(=S)N2CCOCC2)cc1OC(=O)c1ccc(C)cc1 | inconclusive: 6.7% | –
15 | O=C1c2cccc(OCC(=O)N3CCCc4ccccc43)c2CCN1Cc1ccc(Br)cc1 | – | inconclusive: 14.6 µM [falling, partial curve]
16 | CCC[n+]1c(C)sc2c(OC)ccc(OC)c21 | – | inconclusive: 11.2 µM [falling, single point]
17 | C=CS(=O)(=O)c1ccc(Oc2ccc(S(=O)(=O)C=C)cc2)cc1 | inconclusive: 14.9% | –
18 | CCN(CC)S(=O)(=O)c1ccc(S(=O)(=O)N(CC(=O)Nc2ccccc2)Cc2ccco2)cc1 | – | inconclusive: 3.26 µM [falling, full curve, poor fit]
19 | N#Cc1c(-c2cccnc2)c2c([nH]c1=S)CCCC2 | inactive: 10.3% | –
20 | COc1ccc2nc(SCC(=O)NC(C)C)[nH]c2c1 | inactive: 0.305% | –
21 | Cc1cc(C)nc(/N=C(\N)Nc2cccc(OCc3ccccc3)c2)n1 | – | inconclusive: 22.4 µM [falling, single point]

Molecules shown so far that contain an aryl methoxy group (five):
Row | SMILES | activity change, negative = inhibition | Potency
2 | COc1ccc(NC(=S)NNC(=O)COc2ccc(Cl)cc2Cl)cc1 | inactive: 1.96% | –
9 | COc1ccccc1NCC(=O)N/N=C/c1sccc1C | – | inconclusive: 31.6 µM [rising, single point]
14 | COc1ccc(C(=S)N2CCOCC2)cc1OC(=O)c1ccc(C)cc1 | inconclusive: 6.7% | –
16 | CCC[n+]1c(C)sc2c(OC)ccc(OC)c21 | – | inconclusive: 11.2 µM [falling, single point]
20 | COc1ccc2nc(SCC(=O)NC(C)C)[nH]c2c1 | inactive: 0.305% | –

Remaining list, next part

Row | SMILES | activity change, negative = inhibition | Potency
22 | CCOC(=O)C1CCN(C(=O)C2(NC(=O)Nc3cccc(F)c3)CCCCC2)CC1 | inconclusive: 13.4% | –
23 | Cc1cccc(-n2cc(CN(C)Cc3nccn3C)c(-c3cccc(F)c3)n2)c1 | inactive: -0.958% | –
24 | CNC(=S)N/N=C(\C)c1ccc2c(c1)OCCO2 | – | inconclusive: 29.1 µM [falling, single point]
25 | CCOc1ccc2nc(NC(=O)C3CCCN(S(=O)(=O)c4c(C)noc4C)C3)sc2c1 (stereo unspecified) | inconclusive: -16% | –
26 | O=C(Nc1ccc(Br)cc1)N1CCCCC1 | inconclusive: -19% | –
27 | CC1(C)C(C=C(Cl)Cl)C1C(=O)N(Cc1cccc(Cl)c1)C1CCS(=O)(=O)C1 (stereo unspecified) | inconclusive: 1.34% | –
28 | N#Cc1cc(C(=O)c2ccccc2OCC(=O)Nc2ccccc2Cl)cn(C2CCCCC2)c1=O | – | inconclusive: 23.1 µM [falling, partial curve]
29 | Cc1ccoc1C(=O)Nc1ccc2ccccc2c1 | – | inconclusive: 31.6 µM [rising, single point]
30 | Fc1ccccc1N1CCN(Cc2cccnc2)CC1 | inactive: -0.464% | –
31 | COc1cccc2cc(C(C)N(CCCN3CCOCC3)C(=S)Nc3cc(C)cc(C)c3)oc12 (stereo unspecified) | – | inconclusive: 20 µM [falling, single point]
32 | C/C(=N/NC(=O)c1ccccc1)C(=O)O | – | inconclusive: 28.2 µM [falling, single point]
33 | CCOc1cc(C(=O)Nc2ccncc2)cc(OCC)c1OCC | inconclusive: -25.5% | –
34 | COc1ccc2nc(NC(=O)Nc3ccccc3)sc2c1 | – | inconclusive: 31.6 µM [falling, partial curve]
35 | CCn1cc(Cl)c(C(=O)N2N=C(c3ccc4ccccc4c3)CC2c2ccccc2O)n1 (stereo unspecified) | – | inconclusive: 16.4 µM [cytotoxic, single point]
36 | O=C(Nc1ccncc1)c1ccc(Br)cc1 | inactive: -13.3% | –
37 | c1ccc(NC2=Nc3cccc4cccc2c34)cc1 | – | inconclusive: 15.8 µM [falling, partial curve]
38 | COc1cc(/C=C/C(=O)OC(C)C(=O)NC2CCCCC2C)cc(Cl)c1OC (stereo unspecified) | inconclusive: 7.23% | –
39 | COc1ccccc1CNC(=O)c1cc(-c2ccccc2)n(Cc2cc(C)no2)n1 | inconclusive: -10.7% | –
40 | CSc1ccc(/C=N/N2CCN(Cc3ccc(Cl)cc3)CC2)cc1 | inactive: -2.62% | –
41 | CCC(C(=O)O/N=C(\N)c1cccc(C)c1)c1ccccc1 (stereo unspecified) | inconclusive: 14.9% | –
